{"source": "PubChem BioAssay AID652259 (Drosophila RNAi Screening Center, 2013)", "screen": "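Identify new Wingless signalling regulators in fly cells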 (primary screen)", "system": "Drosophila clone 8 imaginal disc epithelial cells", "reagents": "long dsRNA against Drosophila genes", "challenge": "pathway stimulated by co-transfected Wingless expression plasmid", "read-out": "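Dual luciferase reads per well after Wingless plasmid stimulation: reporter firefly light and Renilla control light; activity is firefly divided by Renilla, a ratio not deposited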", "scale": "firefly reporter light: higher = more Wg reporter light, before normalisation; Renilla control light: higher = more transfected or surviving cells", "hit rule": "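Strong candidates differ from their plate mean by at least two out of four per-plate statistical tests; weak candidates meet just one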", "meaning of the calls": "active = candidate regulator (raises or lowers reporter); inactive = not a candidate", "note": "In all, the deposit lists about 22,000 reagents; below is an unselected part of those with a known target gene and a result. In the full data, 233 (1.1%) were called active. 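Light values are raw, unnormalised plate reads; the ratio scores behind the reporter calls were not deposited.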 A plus sign joins genes that one reagent is predicted to hit. Not given: the amount of reagent, the time to read-out, the dose of the treatment."}
{"target gene": "sNPF-R", "dsRNA": "DRSC10836", "firefly reporter light, replicate 1": 14000, "Renilla control light, replicate 1": 3868, "activity call": "inactive"}
{"target gene": "CG33268", "dsRNA": "DRSC10143", "firefly reporter light, replicate 1": 7760, "Renilla control light, replicate 1": 2612, "activity call": "inactive"}
{"target gene": "Eglp3", "dsRNA": "DRSC04293", "firefly reporter light, replicate 1": 2482, "firefly reporter light, replicate 2": 6930, "Renilla control light, replicate 1": 598, "Renilla control light, replicate 2": 2092, "activity call": "inactive"}
{"target gene": "scpr-A + scpr-C", "dsRNA": "DRSC15737", "firefly reporter light, replicate 1": 13863, "Renilla control light, replicate 1": 3978, "activity call": "inactive"}
{"target gene": "CG43376", "dsRNA": "DRSC02537", "firefly reporter light, replicate 1": 2210, "firefly reporter light, replicate 2": 10650, "Renilla control light, replicate 1": 1148, "Renilla control light, replicate 2": 3153, "activity call": "inactive"}
{"target gene": "Mcm5", "dsRNA": "DRSC16735", "firefly reporter light, replicate 1": 12587, "Renilla control light, replicate 1": 3303, "activity call": "inactive"}
{"target gene": "CG11360", "dsRNA": "DRSC17124", "firefly reporter light, replicate 1": 3947, "Renilla control light, replicate 1": 1258, "activity call": "inactive"}
{"target gene": "CG11360", "dsRNA": "DRSC17134", "firefly reporter light, replicate 1": 17277, "Renilla control light, replicate 1": 14599, "activity call": "inactive"}
{"target gene": "CG16903", "dsRNA": "DRSC18561", "firefly reporter light, replicate 1": 21606, "Renilla control light, replicate 1": 10437, "activity call": "inactive"}
{"target gene": "CG12321", "dsRNA": "DRSC14499", "firefly reporter light, replicate 1": 3445, "firefly reporter light, replicate 2": 7834, "Renilla control light, replicate 1": 1804, "Renilla control light, replicate 2": 2693, "activity call": "inactive"}
{"target gene": "CG13408", "dsRNA": "DRSC13534", "firefly reporter light, replicate 1": 5152, "Renilla control light, replicate 1": 2201, "activity call": "inactive"}
{"target gene": "CG13408", "dsRNA": "DRSC14584", "firefly reporter light, replicate 1": 32475, "Renilla control light, replicate 1": 6505, "activity call": "inactive"}
{"target gene": "Jhbp14", "dsRNA": "DRSC01988", "firefly reporter light, replicate 1": 3939, "firefly reporter light, replicate 2": 9136, "Renilla control light, replicate 1": 1729, "Renilla control light, replicate 2": 4032, "activity call": "inactive"}
{"target gene": "STUB1", "dsRNA": "DRSC03282", "firefly reporter light, replicate 1": 2685, "firefly reporter light, replicate 2": 6592, "Renilla control light, replicate 1": 1140, "Renilla control light, replicate 2": 2028, "activity call": "inactive"}
{"target gene": "Rpn7", "dsRNA": "DRSC16841", "firefly reporter light, replicate 1": 1877, "firefly reporter light, replicate 2": 2538, "Renilla control light, replicate 1": 534, "Renilla control light, replicate 2": 1003, "activity call": "inactive"}
{"target gene": "Mcr", "dsRNA": "DRSC03366", "firefly reporter light, replicate 1": 9040, "Renilla control light, replicate 1": 3783, "activity call": "inactive"}
{"target gene": "mamo", "dsRNA": "DRSC19001", "firefly reporter light, replicate 1": 1993, "Renilla control light, replicate 1": 210, "activity call": "inactive"}
{"target gene": "mamo", "dsRNA": "DRSC19370", "firefly reporter light, replicate 1": 17574, "Renilla control light, replicate 1": 10409, "activity call": "inactive"}
{"target gene": "mamo", "dsRNA": "DRSC19371", "firefly reporter light, replicate 1": 21382, "Renilla control light, replicate 1": 9508, "activity call": "inactive"}
{"target gene": "mamo", "dsRNA": "DRSC19372", "firefly reporter light, replicate 1": 24406, "Renilla control light, replicate 1": 14101, "activity call": "inactive"}
{"target gene": "mamo", "dsRNA": "DRSC19373", "firefly reporter light, replicate 1": 24736, "Renilla control light, replicate 1": 12183, "activity call": "inactive"}
{"target gene": "btv", "dsRNA": "DRSC01615", "firefly reporter light, replicate 1": 22774, "Renilla control light, replicate 1": 10040, "activity call": "inactive"}
{"target gene": "btv", "dsRNA": "DRSC02449", "firefly reporter light, replicate 1": 2688, "firefly reporter light, replicate 2": 8256, "Renilla control light, replicate 1": 656, "Renilla control light, replicate 2": 4188, "activity call": "inactive"}
{"target gene": "CG6398", "dsRNA": "DRSC19992", "firefly reporter light, replicate 1": 2064, "firefly reporter light, replicate 2": 7900, "Renilla control light, replicate 1": 1024, "Renilla control light, replicate 2": 3128, "activity call": "inactive"}
{"target gene": "dpr20", "dsRNA": "DRSC08265", "firefly reporter light, replicate 1": 13635, "Renilla control light, replicate 1": 4348, "activity call": "inactive"}

4 of these entries, reformatted:
mamo [DRSC19001]: firefly reporter light, replicate 1 = 1993; Renilla control light, replicate 1 = 210; activity call = inactive
mamo [DRSC19370]: firefly reporter light, replicate 1 = 17574; Renilla control light, replicate 1 = 10409; activity call = inactive
mamo [DRSC19371]: firefly reporter light, replicate 1 = 21382; Renilla control light, replicate 1 = 9508; activity call = inactive
mamo [DRSC19372]: firefly reporter light, replicate 1 = 24406; Renilla control light, replicate 1 = 14101; activity call = inactive
